# Data as given in paper PMC6925144, “A prospective compound screening contest identified broader inhibitors for Sirtuin 1” (Scientific Reports, 2019).
# Amino acid sequences for entries named in this document (tags omitted). Residues count along the entry.
# UniProt Q96EB6, 2-747 limits assumed: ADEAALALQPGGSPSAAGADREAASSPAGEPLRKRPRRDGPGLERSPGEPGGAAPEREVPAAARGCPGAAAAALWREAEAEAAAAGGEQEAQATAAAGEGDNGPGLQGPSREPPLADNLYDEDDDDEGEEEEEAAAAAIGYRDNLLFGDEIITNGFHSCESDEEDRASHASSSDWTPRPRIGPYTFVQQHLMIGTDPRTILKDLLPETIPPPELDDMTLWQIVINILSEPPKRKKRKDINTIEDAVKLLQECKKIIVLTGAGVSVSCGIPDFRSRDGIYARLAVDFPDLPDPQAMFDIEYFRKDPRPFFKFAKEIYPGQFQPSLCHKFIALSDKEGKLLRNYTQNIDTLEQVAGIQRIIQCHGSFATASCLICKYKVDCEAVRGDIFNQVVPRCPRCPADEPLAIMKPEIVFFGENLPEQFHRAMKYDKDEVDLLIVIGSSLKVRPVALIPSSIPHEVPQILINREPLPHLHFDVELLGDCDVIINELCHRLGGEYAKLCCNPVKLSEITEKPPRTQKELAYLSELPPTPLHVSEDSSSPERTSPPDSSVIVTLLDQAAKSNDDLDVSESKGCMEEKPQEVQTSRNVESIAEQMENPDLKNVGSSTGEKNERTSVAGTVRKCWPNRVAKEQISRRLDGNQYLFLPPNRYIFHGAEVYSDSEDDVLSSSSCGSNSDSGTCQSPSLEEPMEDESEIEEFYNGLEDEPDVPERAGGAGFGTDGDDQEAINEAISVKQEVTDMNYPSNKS
# Whole data set: some 3,200 compounds, median “TSA(without NAD+) / Primary screening (TSA) / delta Tm (K)” near -0.07, cut for the highest 2% near 0.37. The list shows a part of the results.
# Target: NAD-dependent deacetylase Sirtuin 1 (human, UniProt Q96EB6)
# Test: primary screen, delta tm
# Parameters: single well (n = 1)
# Conditions: 10 µM
# Outline: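 Thermal shift of Sirtuin 1 measured without NAD+, compound at 10 µM (n = 1); value is ΔTm, with hits defined as ΔTm > 0.45 K or < −1.5 K. Hits retested at 5, 10, 20 µM (n = 4) and counterscreened on bovine carbonic anhydrase and ABL1 SH2 domain.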
row,SMILES,TSA(without NAD+) / Primary screening (TSA) / delta Tm (K)
1,CCn1c(=O)c(C)nc2cc(C(=O)NCC(C(C)C)N(C)C)ccc21 (centres unmarked),0.08
2,O=C(CN1C(=O)COc2ccccc21)Nc1cccc(S(=O)(=O)NCc2ccco2)c1,0.07
3,NC(=O)CN1CCOc2cc(Br)c(Cl)cc21,-0.23
4,CN1C(=O)N(CC(=O)c2ccc3c(c2)CCCC3)C(=O)C12CCCCC2,-0.18
5,CC(C)c1ccc(-c2nnc(NC(=O)/C=C/c3ccco3)s2)cc1,-0.12
6,CCn1c(C(=O)Nc2ccc(CCO)cc2)cc2ccccc21,-0.04
7,Cc1nc2cc(NC(=O)C3Cc4ccccc4O3)ccc2o1 (centres unmarked),0.03
8,CC#CCN,-0.23
9,O=C(Nc1ccc(NC(=O)c2ccccc2-n2cccn2)cc1)NC1CC1,-0.08
10,COc1ccccc1-c1c(C)oc2cc(O)ccc2c1=O,-0.13
11,NC(=O)c1ccc(N2CCCC2)c(NC(=O)CCc2ccc3c(c2)OCO3)c1,-0.11
12,Cc1ccc(S(=O)(=O)N2CCCCC2)cc1NC(=O)COC(=O)c1ccccc1SCC(=O)N1CCCC1,0.12
13,O=C(c1ccc(-n2cnnn2)cc1Cl)N1CCCN2CCCC2C1 (centres unmarked),-0.07
14,Cc1nc(-c2cccnc2)nc(NCCOc2cccnc2)c1C,0.03
15,O=C(CN1C(=O)NC2(CCCC2)C1=O)NCC12CC3CC(CC(C3)C1)C2,-0.14
16,c1ccc(-c2cc(-c3nc4c5ccccc5ncn4n3)[nH]n2)cc1,-0.21
17,Cc1c(NN=C2C(=O)NC(=S)NC2=O)c(=O)n(-c2ccccc2)n1C,-0.03
18,O=C(O)c1cnc2c(c1)c(=O)[nH]c(=O)n2Cc1ccccc1,-0.13
19,OC1CCN(CCOCCOc2ccccc2)CC1,-0.24
20,CC(C(=O)Nc1ncccn1)N1CCC(c2c[nH]c3ccc(C(N)=O)cc23)CC1 (centres unmarked),0.03
21,NC(=O)c1ccc(=O)n(Cc2ccn(-c3ccccc3)n2)n1,-0.12
22,COc1ccc(C(=O)NCCc2ccc(-c3csc(C)n3)s2)cc1,0.07
23,C[C@@H](O)CCN,-0.14
24,CC(NC(=O)COC(=O)CNC(=O)c1ccc(-c2ccccc2)cc1)C12CC3CC(CC(C3)C1)C2 (centres unmarked),0.06

row,SMILES,TSA(without NAD+) / Primary screening (TSA) / delta Tm (K)
1,COC(=O)c1ncccc1N1CCN(C(=O)CN2CCOCC2)CC1,-0.12
2,COc1ccc2nc(C)c(C(=O)NC34CC5CC(CC(C5)C3)C4)cc2c1,-0.12
3,COc1ccc(C(CNC(=O)CCc2nc3ccccc3[nH]2)N(C)C)cc1 (centres unmarked),-0.11
4,COc1ccc(N(C)S(=O)(=O)c2cccc(C(=O)OCc3ccc(C)cc3)c2)cc1,-0.07
5,Cc1ccc(-n2c3nc4ccccc4nc3c3c(=N)oc(C)nc32)cc1,0.06
6,CC(C)CC1CCCC(CC(C)C)N1 (centres unmarked),-0.05
7,COc1cccc(/C=C2/Oc3cc(O)ccc3C2=O)c1OC(F)F,-0.13
8,NC(=O)c1cc(N2CCN(CC(=O)N3CCCCCC3)CC2)nc2ccccc12,0.02
9,O=C(Nc1cccc2cccnc12)c1ccc2c(c1)C(=O)c1ccccc1-2,0.35
10,CC(=O)NC12CC3CC(C1)CC(C(=O)OC(C)C(=O)Nc1ccccc1-c1ccccc1)(C3)C2 (centres unmarked),-0.02
11,Cc1[nH]c2ccc(C(=O)N3CCC(C(N)=O)CC3)cc2c1C,-0.08
12,COCCCCCN,0.05
13,N#CCCC(C#N)CN1CCC(CCc2ccc(O)cc2)CC1 (centres unmarked),-0.31
14,CC1(C)CN(CC(F)(F)F)CCN1CC(=O)NCc1ccccc1,-0.24
15,CC(O)CC(C)(C)CNC(=O)Nc1ccc(F)cc1 (centres unmarked),-0.13
16,Cc1ccc2[nH]c3c(c2c1)CN(c1ncccn1)CC3,-0.02
17,CCc1cccc2c(C(=O)COC(=O)CN3CCCCCC3=O)c[nH]c12,0.02
18,Cc1ccc(-c2nnc(SCC(=O)NC(=O)NC(C)C)n2N)cc1,-0.21
19,COC(=O)C1(CNc2ncnc3c(C)csc23)CC1,-0.03
20,COC(=O)CN,0.06
21,CCN(CC)c1ccc(C(=O)C(C#N)C(=O)N2CCCC2)cn1 (centres unmarked),0.15
22,CCOC(=O)c1sc2ncnc(N3CCCC(C(N)=O)C3)c2c1C (centres unmarked),-0.28
23,Cc1ccc(-c2csc3ncn(CCC(=O)Nc4cccc(-c5nc(C)no5)c4)c(=O)c23)cc1,-0.31
24,NC(=O)C1CCN(c2ncnc3ccccc23)CC1,-0.12

# A draw from above in order of formula weight, rising.
row,SMILES,TSA(without NAD+) / Primary screening (TSA) / delta Tm (K)
23,C[C@@H](O)CCN,-0.14
12,COCCCCCN,0.05
6,CC(C)CC1CCCC(CC(C)C)N1 (centres unmarked),-0.05
24,NC(=O)C1CCN(c2ncnc3ccccc23)CC1,-0.12
16,Cc1ccc2[nH]c3c(c2c1)CN(c1ncccn1)CC3,-0.02
15,CC(O)CC(C)(C)CNC(=O)Nc1ccc(F)cc1 (centres unmarked),-0.13
19,COC(=O)C1(CNc2ncnc3c(C)csc23)CC1,-0.03
21,NC(=O)c1ccc(=O)n(Cc2ccn(-c3ccccc3)n2)n1,-0.12
11,Cc1[nH]c2ccc(C(=O)N3CCC(C(N)=O)CC3)cc2c1C,-0.08
13,N#CCCC(C#N)CN1CCC(CCc2ccc(O)cc2)CC1 (centres unmarked),-0.31
21,CCN(CC)c1ccc(C(=O)C(C#N)C(=O)N2CCCC2)cn1 (centres unmarked),0.15
7,COc1cccc(/C=C2/Oc3cc(O)ccc3C2=O)c1OC(F)F,-0.13
5,Cc1ccc(-n2c3nc4ccccc4nc3c3c(=N)oc(C)nc32)cc1,0.06
14,CC1(C)CN(CC(F)(F)F)CCN1CC(=O)NCc1ccccc1,-0.24
1,COC(=O)c1ncccc1N1CCN(C(=O)CN2CCOCC2)CC1,-0.12
2,COc1ccc2nc(C)c(C(=O)NC34CC5CC(CC(C5)C3)C4)cc2c1,-0.12
17,CCc1cccc2c(C(=O)COC(=O)CN3CCCCCC3=O)c[nH]c12,0.02
22,COc1ccc(C(=O)NCCc2ccc(-c3csc(C)n3)s2)cc1,0.07
3,COc1ccc(C(CNC(=O)CCc2nc3ccccc3[nH]2)N(C)C)cc1 (centres unmarked),-0.11
8,NC(=O)c1cc(N2CCN(CC(=O)N3CCCCCC3)CC2)nc2ccccc12,0.02
4,COc1ccc(N(C)S(=O)(=O)c2cccc(C(=O)OCc3ccc(C)cc3)c2)cc1,-0.07
10,CC(=O)NC12CC3CC(C1)CC(C(=O)OC(C)C(=O)Nc1ccccc1-c1ccccc1)(C3)C2 (centres unmarked),-0.02
23,Cc1ccc(-c2csc3ncn(CCC(=O)Nc4cccc(-c5nc(C)no5)c4)c(=O)c23)cc1,-0.31
24,CC(NC(=O)COC(=O)CNC(=O)c1ccc(-c2ccccc2)cc1)C12CC3CC(CC(C3)C1)C2 (centres unmarked),0.06

# More compounds

row,SMILES,TSA(without NAD+) / Primary screening (TSA) / delta Tm (K)
1,Cc1nn(C)cc1CCN,-0.15
2,O=C(O)c1cc2c(ccc3cc(Br)ccc32)oc1=O,0.29
3,COC(=O)c1[nH]c(C)c(C(=O)/C=C(/O)C(=O)NCCN2CCOCC2)c1C,-0.15
4,CC(NC(=O)COC(=O)c1cccnc1SCC(=O)Nc1ccc2c(c1)OCO2)C12CC3CC(CC(C3)C1)C2 (centres unmarked),0.07
5,O=C(CSc1ccccc1C(=O)OCc1cc([N+](=O)[O-])cc2c1OCOC2)NC12CC3CC(CC(C3)C1)C2,0.02
6,NC(=O)c1csc(C(=O)N2CCC(COCc3ccccc3)C2)c1 (centres unmarked),-0.08
7,COc1cccc(CN(C(=O)CN2C(=O)c3ccccc3S2(=O)=O)C23CC4CC(CC(C4)C2)C3)c1,-0.03
8,NC(=O)Cc1ccc(NC(=O)c2cc(Br)ccc2F)cc1,0.09
9,O=C(Nc1cccc(S(=O)(=O)N2CCOCC2)c1)c1cc(-c2ccccc2)nn1-c1ccccc1,0.09
10,CC(Nc1cccc(C(N)=O)c1)C1CN(Cc2ccccc2)CCO1 (centres unmarked),-0.18
11,COC(=O)c1ccc2[nH]c3c(c2c1)CN(C(=O)C(C)C)CC3,-0.14
12,COc1ccc(-c2cc(NC(=O)CCNC(=O)c3ccc(Cl)cc3)ccc2OC(F)F)cc1,0.12
13,CC(C)c1nnc(S)[nH]1,-0.03
14,COCCN(CC(=O)Nc1ccccc1C(F)(F)F)C(=O)Cc1csc(-c2ccsc2)n1,-0.12
15,NC(=O)C1CCN(c2ncnc3sc4c(c23)CCC4)CC1,-0.21
16,CCCCc1ccc(Nc2nnc(SCC(=O)Nc3ccc(N4CCN(Cc5ccccc5)CC4)cc3)s2)cc1,0.08
17,CSCCOC(=O)c1ccc2[nH]c(C(F)F)nc2c1,-0.08
18,c1nc(N2CCNCC2)c2sccc2n1,-0.08
19,CCCOc1cccc(C2C(C(=O)c3ccc(C)o3)=C(O)C(=O)N2CCCN2CCOCC2)c1 (centres unmarked),-0.17
20,CCO/C=C1/C(=O)N(c2ccc(S(=O)(=O)N3CCOCC3)cc2)C(=O)c2ccccc21,0.02
21,Fc1ccc2[nH]cc(C3CCNCC3)c2c1,-0.24
22,C=CCOc1ccc(C(=O)C2=C(O)C(=O)N(CCCN3CCOCC3)C2c2ccc(F)cc2)cc1 (centres unmarked),-0.05
23,O=C(CCn1[nH]c(=O)ccc1=O)Nc1cccc2cccnc12,0.02
24,Cc1ccc(S(=O)(=O)NCc2ccco2)cc1C(=O)NCc1ccccc1-n1cccn1,-0.01

row,SMILES,TSA(without NAD+) / Primary screening (TSA) / delta Tm (K)
1,CN(C)c1c(F)cc(C(=N)N)cc1F,-0.18
2,Cc1nc2c(C(N)=O)ncn2c(C)c1CCC(=O)NCCSc1ccccc1,-0.03
3,CC(=O)c1sc(NC(=O)c2cnc3ccccc3n2)nc1-c1ccccc1,0.25
4,COc1ccc(/C=N/c2ccc(C(=O)O)cc2)cc1Br,0.07
5,O=C(Nc1ccc(S(=O)(=O)N2CCOCC2)cc1)C1=COCCO1,-0.05
6,Cc1ccc(S(=O)(=O)N2CCN(C(=O)CSc3nnc(NCc4ccco4)s3)CC2)cc1,0.16
7,C=CCOc1cccc(C2C(C(=O)c3ccc(C)o3)=C(O)C(=O)N2CCCN2CCOCC2)c1 (centres unmarked),-0.02
8,CCC(N)CC(=O)O (centres unmarked),-0.17
9,N#C/C(=C/c1ccc(-c2cccc(Cl)c2)o1)C(=O)Nc1cccc2ncccc12,-0.04
10,CCc1c(C)nc2ccccc2c1N1CCN2C(=O)C(=O)NCC2C1 (centres unmarked),-0.28
11,CC1(C)C(NC(=O)C2CC(c3cccc(F)c3)=NO2)C2CCOC21 (centres unmarked),-0.11
12,c1ccc(-c2cnc(CSc3nc4ccccc4o3)o2)cc1,-0.07
13,COc1ccc(OC)c2c1CN(C(C)c1nc(C3CC3)no1)CC2O (centres unmarked),-0.12
14,CN(Cc1ccc(F)cc1)c1cc(=O)n2ccccc2n1,0.02
15,COC(=O)NC(CC(C)C)C(=O)NCc1cc(C)nc2ccccc12 (centres unmarked),-0.12
16,COc1ccc(O)c(/C(C)=N/Nc2nc(C)cc(O)n2)c1,-0.03
17,NC(=O)c1ccc(NC(=O)c2cc(-c3ccccc3)nc3ccccc23)cc1,-0.08
18,CCOCCCN1C(=O)/C(=C/c2c(N3CCC(C)CC3)nc3ccc(C)cn3c2=O)SC1=S,-0.04
19,O=c1cc(CSc2nnc(Nc3ccccc3)s2)c2ccc(O)cc2o1,0.38
20,COc1ccc(C(CN2CCN(C)CC2)NC(=O)OC(C)(C)C)cc1 (centres unmarked),-0.02
21,CCOc1ccc2nc(NN=C3C(=O)NC(=S)NC3=O)sc2c1,-0.07
22,COc1ccc(-c2csc3nc(C)nc(N4CCN(C5CCS(=O)(=O)C5)CC4)c23)cc1OC (centres unmarked),-0.03
23,O=C1CCCCC(C(=O)Nc2ccc(-c3nc4ccccc4[nH]3)cc2)N1 (centres unmarked),-0.03
